In all, about 53,000 sequences went through this assay and about 3,700 (7%) were called active.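 Rule for the calls: active = gene knockdowns whose robust z-score for IL-1 alpha signal is at least 2 or at most -2, so actives lie on both sides; inactive = the rest.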 This is one part of the list.
Test: Components of the Cytosolic LPS Sensing Pathway: Gene Identification via Genome-wide siRNA Screen;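 note: robust z of the log signal after scaling to non-targeting control siRNA wells of the plate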
Conditions: RAW264.7 macrophages, IL-1a HTRF, actives lie on both sides, screened at 100 nM (by protocol), cells primed 5 h with Pam3CSK4 first
How it was run: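 Three distinct siRNAs per gene were tested singly at 100 nM in RAW264.7 macrophages. Following Pam3CSK4 priming and 24 hour LipidA transfection, IL-1a secretion was read by HTRF.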

Row | Sequence | z-score
1 | CCUAAUGUUUACCACAGACTT against Mrps25 | inactive: -0.867
2 | GGCGGAGGAUCUUACUAUCTT against Foxf1 | inactive: 1.05
3 | GGAAACCUGCUCAUAGUGGTT against Olfr1188 | inactive: 0.54
4 | GCAACCUGAGGAAUUCAAUTT against Radx | inactive: 0.918
5 | GGAGAGACCUAAAUCUCACTT against Gp9 | inactive: 1.78
6 | CCACUAUGCUUCUUGGAAUTT against Serpini2 | inactive: -0.73
7 | CCUCCUUUGGACAACGGGUTT against Cyp7a1 | inactive: -1.34
8 | GCUCAUAAUUACAUCACCATT against H3c15 | inactive: -1.22
9 | GGUCAUGGCUGGAUUUCUUTT against Olfr1462 | active: -2.42
10 | GCAGAAAUCUGCCCAGCAGTT against Svbp | inactive: -0.104
11 | GGAGAUUCUAGAUCAUCUATT against Phldb2 | inactive: 0.44
12 | GGAUUAUCUUACAAUGUGGTT against Adam10 | inactive: 0.124
13 | GGCAGAGCUUGGAGUAUCUTT against Gtpbp4 | inactive: 1.31
14 | GCAUGGCACUUUUUUAUACTT against Olfr1535 | inactive: 0.371
15 | GAUGUACUUGAUAAAGCCUTT against Ugt2b37 | active: 3.68
16 | GGGUCAAAUCUGACUGCAUTT against Klf10 | inactive: 0.501
17 | CCACUGAAGUAGUUUCCUATT against Nipsnap3b | inactive: -0.219
18 | GGGUGAUGGACAUAAAUGATT against Pcdhb17 | inactive: -1.07
19 | GGUAUGCAGUGAAGAGGAUTT against Paqr9 | active: 2.52
20 | GGACCAAUGCACAGAAGUATT against Jkamp | inactive: -0.183
21 | GCUUGACGAACAGGUACUGTT against Pakap | inactive: 0.124
22 | GGUUCCUUACCUAUUCCUATT against Tmtc1 | inactive: 0.005
23 | GCUUCAUUUAGCUUUAACUTT against Tpp2 | inactive: -1.94

Row | Sequence | z-score
24 | GGUCUUUGUUAAGAAUCCUTT against Myo1f | inactive: -0.496
25 | GGUGUGGGUGACCUUUAUCTT against Tmem205 | inactive: -1.22
26 | GGAAGAGAAAACAACAGUUTT against Phactr4 | inactive: -1.26
27 | CCUUGUAUCCUUAAUCCUCTT against Ppt1 | inactive: 0.613
28 | GCUACACAUGGGAACUAACTT against 4631405J19Rik | inactive: 1.51
29 | UACAACCCGAAUGAAUCGUTT against Olfr129 | inactive: 0.204
30 | CCGAAAAUGUGGUAAAGUATT against Smg1 | inactive: 0.948
31 | GGGCUUUUAAUAGAGGUAATT against Rras2 | inactive: 0.351
32 | UGAUCGAGAAUGAACUUACTT against Gm5414 | inactive: 0.925
33 | GCUUUACUCUAAUUGAUGUTT against Chmp4c | inactive: -0.58
34 | CCAGUUGAGUCACUUACUGTT against Borcs7 | inactive: 0.667
35 | GGAGAUAACAGAUCUGUUUTT against Fam114a2 | inactive: -0.843
36 | GCACAAUCCCAACUUGGAATT against Retnlg | inactive: 1.72
37 | GCUGUCUGAUUGGGUCCUUTT against Lag3 | inactive: -0.343
38 | CCAUCUACACUUCCCUGCATT against BC048403 | inactive: 0.389
39 | GGAAAGGUAAUGCAUCACATT against Rev3l | inactive: -1.68
40 | GGCUGAGUCCUAAUAGCCUTT against Celf5 | inactive: -0.487
41 | GCUGUUAAGUAAUGACAGATT against Chst7 | inactive: 1.54
42 | GUUCUUGGCAACAUGGCAGTT against Olfr551 | inactive: -0.692
43 | GCAUCUCGUGAUAUAUAAGTT against Nudt9 | inactive: 0.11
44 | GCAGAAGGUACUACUAUCGTT against Rcsd1 | inactive: 0.669
45 | CCCACAAGUGUAAAGAUCGTT against Ebag9 | inactive: 0.377
46 | GCGGAUCUGCUUUUUGCACTT against Ttc14 | inactive: -0.105

Row | Sequence | z-score
47 | GGUGAUAAAGGGCAAAUGATT against Crls1 | inactive: -1.04
48 | CCGUAGUGGUAAACCUGGATT against Gcg | inactive: 0.065
49 | GGUGAUGUUCCCUGUUUUCTT against Gstt1 | inactive: 0.547
50 | GCAUAUGAGAUAGUUAACATT against Ces2g | inactive: -0.249
51 | AUCAGUGGGUUAAAUAAAGTT against Cox11 | inactive: 0.069
52 | GGGUUUUCUCAUUGUCUUUTT against Rce1 | inactive: -1.91
53 | GGACAAACAGAACACAGUGTT against Ngfr | inactive: -0.986
54 | GGUAGUGGACCUGACCUAUTT against Hectd3 | inactive: 0.00204
55 | GGGAUGUGAGCUUGGACUUTT against Phox2b | inactive: 0.0311
56 | GGACAGGAAUGCAUUUGUCTT against Cyfip2 | inactive: -0.98
57 | CGAGAUCAUCUCAAAUAUCTT against Man2a1 | inactive: -0.0408
58 | AUGCAUGAAAUCAUGUUGATT against Ndufa4 | inactive: 0.0789
59 | GGCCAAAGGCUCAGAUGAUTT against Hic2 | inactive: -0.955
60 | GGUUAAAAGCCAUGUGUAATT against Pggt1b | inactive: -0.151
61 | GGUUUUCACUGCUAUAACATT against Cers6 | inactive: -0.446
62 | GGAUGUUUGGACAUCAUUUTT against 2610002M06Rik | inactive: 0.204
63 | GGAGGUGAACAAUAUCUUCTT against Klf5 | inactive: -0.334
64 | GGUGGAUGAGGACACUAUCTT against Hs6st1 | inactive: 1.88
65 | CGAACUACCAGACAUGACUTT against Mier3 | inactive: -1.34
66 | GGUUAGAGAUCUUUUGAAATT against St14 | inactive: -0.333
67 | GUGAUUGGGAACCUGUUUATT against Paqr6 | inactive: -1.35
68 | UACAACCCACCUUUUAAGUTT against Tusc1 | inactive: 0.863

Some of the entries above in another layout.
Row,Sequence,z-score
61,GGUUUUCACUGCUAUAACATT against Cers6,inactive: -0.446
62,GGAUGUUUGGACAUCAUUUTT against 2610002M06Rik,inactive: 0.204
63,GGAGGUGAACAAUAUCUUCTT against Klf5,inactive: -0.334
64,GGUGGAUGAGGACACUAUCTT against Hs6st1,inactive: 1.88
65,CGAACUACCAGACAUGACUTT against Mier3,inactive: -1.34
66,GGUUAGAGAUCUUUUGAAATT against St14,inactive: -0.333

Reference: PubChem BioAssay AID1508600 (Functional Genomics Laboratory (NCATS/FGL), 2020)
